Test results as given in article PMC9667586.
No constants are given. Whether binding was seen depends on the method and setting. Binding seen in cells or lysates may run through a third protein. A yes stands for co-enrichment or nearness to the bait. Other partners may have been found.

Protein sequences, listed by entry. Tags and fused reporters are not part of them.
UniProt Q16643: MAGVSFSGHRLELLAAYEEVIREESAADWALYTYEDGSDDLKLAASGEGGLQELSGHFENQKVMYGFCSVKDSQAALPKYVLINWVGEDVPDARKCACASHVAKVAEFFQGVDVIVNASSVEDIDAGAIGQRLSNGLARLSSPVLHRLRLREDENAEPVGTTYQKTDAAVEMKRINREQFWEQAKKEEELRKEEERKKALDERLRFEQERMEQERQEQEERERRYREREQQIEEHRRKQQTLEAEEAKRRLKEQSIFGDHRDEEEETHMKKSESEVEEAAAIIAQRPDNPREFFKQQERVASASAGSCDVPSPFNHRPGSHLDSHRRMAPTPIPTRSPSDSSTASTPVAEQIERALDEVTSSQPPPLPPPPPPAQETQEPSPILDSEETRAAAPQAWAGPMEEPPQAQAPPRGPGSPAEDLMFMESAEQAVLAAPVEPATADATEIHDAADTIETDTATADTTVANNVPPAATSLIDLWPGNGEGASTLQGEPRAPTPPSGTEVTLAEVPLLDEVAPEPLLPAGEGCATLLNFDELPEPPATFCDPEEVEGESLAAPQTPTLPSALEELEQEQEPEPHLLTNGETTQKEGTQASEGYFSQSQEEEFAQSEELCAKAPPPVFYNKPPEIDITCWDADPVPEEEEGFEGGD
UniProt Q16666: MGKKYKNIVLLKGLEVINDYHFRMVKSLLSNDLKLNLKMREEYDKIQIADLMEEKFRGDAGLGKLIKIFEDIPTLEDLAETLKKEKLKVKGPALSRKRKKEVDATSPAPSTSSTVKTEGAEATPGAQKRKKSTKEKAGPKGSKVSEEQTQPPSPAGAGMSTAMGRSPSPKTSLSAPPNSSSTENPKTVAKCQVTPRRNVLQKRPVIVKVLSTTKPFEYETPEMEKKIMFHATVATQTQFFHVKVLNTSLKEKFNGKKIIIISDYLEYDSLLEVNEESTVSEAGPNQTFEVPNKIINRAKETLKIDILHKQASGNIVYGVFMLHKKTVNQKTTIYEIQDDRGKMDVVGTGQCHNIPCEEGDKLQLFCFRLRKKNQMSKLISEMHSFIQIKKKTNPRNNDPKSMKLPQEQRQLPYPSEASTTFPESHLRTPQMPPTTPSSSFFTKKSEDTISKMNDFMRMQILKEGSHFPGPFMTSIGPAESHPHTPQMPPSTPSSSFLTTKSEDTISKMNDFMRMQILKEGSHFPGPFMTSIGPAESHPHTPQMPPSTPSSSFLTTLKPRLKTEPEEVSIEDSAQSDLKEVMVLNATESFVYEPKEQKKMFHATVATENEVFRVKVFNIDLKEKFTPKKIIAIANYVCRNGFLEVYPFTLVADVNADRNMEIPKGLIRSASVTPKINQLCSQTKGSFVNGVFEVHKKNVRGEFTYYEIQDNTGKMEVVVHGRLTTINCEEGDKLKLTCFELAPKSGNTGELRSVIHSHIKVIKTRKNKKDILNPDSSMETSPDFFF

Target: Actin related protein 2/3 complex, subunit 1B (human (endogenous in GSC 267 and GSC 20)) (UniProt O15143)
Test: affinity purification with mass spectrometry; IP with ARPC1B antibody from GSC 267 cells, IgG control; SDS-PAGE, silver staining, mass spectrometry

CORO1C (from UniProt Q9ULV4 1-474)
binding: binds

DBN1 (from UniProt Q16643 1-649)
binding: binds

Human antigen R (from UniProt Q15717 1-326)
binding: binds

γ-interferon inducible protein 16 (from UniProt Q16666 1-785)
binding: binds
